Drawing on PubChem BioAssay AID296 (DTP/NCI, 2004), this text covers T/C and survivor count for 10 compounds.

The list shows only some results of the screen, not a fair sample: it covers a few groups of compounds. Other doses and runs of a compound may be missing. T/C gives the treated animals as a percentage of the vehicle group. Schedules are NCI's codes, read here as Q, the interval in days (D) or hours (H), X, the number of doses. Some values lie below zero, which means that the treated tumours became smaller. Some entries hold several experiments; the values are given in rising order. Some T/C values carry the count of animals alive at the toxicity check; where neither a count nor a note follows, no animal had died by that day. Some entries give survivors of the animals treated and no T/C: the source files T/C as zero there, which appears to mark a toxic dose or a test without result, not a measured value. Survivors were counted at the toxicity check; its day is shown where the source gives one, and later deaths do not show. Some metal complexes and salts are drawn in pieces, as in the source, so charges may not balance.

The test relates to MX-1 breast xenograft, nude mice, tumor weight T/C. The test is described as follows: NCI In Vivo Anticancer Drug Screen. Data for tumor model Human Mammary Carcinoma MX-1 Xenograft (intrarenal inoculation) in NU/NU Swiss (nude) mice. The note with it: T/C endpoint: mean tumor weight change, higher T/C = larger tumour; for T/C: evaluated on day 11. The procedure:
The antitumor activity of compounds was measured in mice bearing transplantable tumors. Survival or tumor size were measured and the results are expressed as the measurement made in the treated group (T) divided by the measurement made in the vehicle treated control group (C). The tumor model used in this assay is Human Mammary Carcinoma MX-1 Xenograft (intrarenal inoculation) in NU/NU Swiss (nude) mice

Setting [1] is: dose: 300.0 mg/kg/injection, schedule: Q04DX003 (sc), vehicle: Klucel (hydroxypropylcellulose) (HPC).
Where [2] appears, read: dose: 600.0 mg/kg/injection, schedule: Q04DX003 (sc), vehicle: Klucel (hydroxypropylcellulose) (HPC).
Setting [3] is: dose: 1200.0 mg/kg/injection, schedule: Q04DX003 (sc), vehicle: Klucel (hydroxypropylcellulose) (HPC).
The mark [4] stands for this setting: dose: 2400.0 mg/kg/injection, schedule: Q04DX003 (sc), vehicle: Klucel (hydroxypropylcellulose) (HPC).
Setting [5] is: dose: 100.0 mg/kg/injection, schedule: Q01DX010 (sc), vehicle: saline with Tween-80.
Setting [6] is: dose: 200.0 mg/kg/injection, schedule: Q04DX003 (sc), vehicle: suspension in saline.
Where [7] appears, read: dose: 400.0 mg/kg/injection, schedule: Q04DX003 (sc), vehicle: suspension in saline.
[8] abbreviates: dose: 800.0 mg/kg/injection, schedule: Q04DX003 (sc), vehicle: suspension in saline.
[9] abbreviates: dose: 300.0 mg/kg/injection, schedule: Q04DX003 (sc), vehicle: saline with Tween-80.
Where [10] appears, read: dose: 600.0 mg/kg/injection, schedule: Q04DX003 (sc), vehicle: saline with Tween-80.
Setting [11] is: dose: 1200.0 mg/kg/injection, schedule: Q04DX003 (sc), vehicle: saline with Tween-80.

Consider `ClP1(Cl)=NP(Cl)(Cl)=NP(Cl)(Cl)=NP(Cl)(Cl)=N1`, for which the T/C runs as follows: under setting [1], 68 % of control; under setting [2], 100 % of control; under setting [3], 63 % of control; under setting [4], 104 % of control.
On to `Nc1cc([As]=O)ccc1O` (stereo not drawn), for which the T/C reads like this: (dose: 25.0 mg/kg/injection, schedule: Q01DX010 (sc), vehicle: saline with Tween-80) 80 and 97 % of control; (dose: 50.0 mg/kg/injection, schedule: Q01DX010 (sc), vehicle: saline with Tween-80) 50, 66, 85, 92 % of control; under setting [5], 9 [2 of 3 alive on day 11], 28, 47 % of control. Besides, the survivor count was 0 of 6 on day 11 under setting [5]; 0 of 3 on day 11 and 0 of 6 on day 11 (dose: 200.0 mg/kg/injection, schedule: Q01DX010 (sc), vehicle: saline with Tween-80); 0 of 6 on day 11 (dose: 400.0 mg/kg/injection, schedule: Q01DX010 (sc), vehicle: saline with Tween-80).
On to `Cc1ccc(Sc2ccc([N+](=O)[O-])cc2[N+](=O)[O-])c([N+](=O)[O-])c1`, for which the T/C reads like this: (dose: 100.0 mg/kg/injection, schedule: Q04DX003 (sc), vehicle: suspension in saline) 134 % of control; under setting [6], 145 % of control; under setting [7], 191 % of control; under setting [8], 164 % of control.
For `CCCNC(=O)c1ccc(N(CCCl)CCCl)cc1`, the T/C under setting [1] is 155 % of control, the T/C under setting [2] is 141 % of control [5 of 6 alive on day 11], the T/C under setting [3] is 105 % of control and the T/C under setting [4] is 94 % of control.
`CC(=O)OC(SC(OC(C)=O)C(Cl)(Cl)Cl)C(Cl)(Cl)Cl` (stereo not drawn): the T/C is 119 % of control (dose: 100.0 mg/kg/injection, schedule: Q01DX010 (sc), vehicle: Klucel (hydroxypropylcellulose) (HPC)); 158 % of control (dose: 200.0 mg/kg/injection, schedule: Q01DX010 (sc), vehicle: Klucel (hydroxypropylcellulose) (HPC)); 114 % of control (dose: 400.0 mg/kg/injection, schedule: Q01DX010 (sc), vehicle: Klucel (hydroxypropylcellulose) (HPC)); 115 % of control (dose: 800.0 mg/kg/injection, schedule: Q01DX010 (sc), vehicle: Klucel (hydroxypropylcellulose) (HPC)).
Consider `ICCN(CCI)c1cccc2ccccc12`, for which the T/C reads like this: (dose: 75.0 mg/kg/injection, schedule: Q04DX003 (sc), vehicle: Klucel (hydroxypropylcellulose) (HPC)) 27 and 82 % of control; (dose: 150.0 mg/kg/injection, schedule: Q04DX003 (sc), vehicle: Klucel (hydroxypropylcellulose) (HPC)) 19 and 32 % of control [5 of 6 alive on day 11]; under setting [1], 2 and 29 % of control; under setting [2], 23 % of control. The survivor count under setting [2] was 3 of 6 on day 11.
Regarding `NC(=O)c1[nH]cnc1/N=N\N(CCCl)CCCl`, the T/C is, setting by setting: (dose: 75.0 mg/kg/injection, schedule: Q04DX003 (sc), vehicle: saline with Tween-80) 62 % of control; (dose: 150.0 mg/kg/injection, schedule: Q04DX003 (sc), vehicle: saline with Tween-80) 40, 74, 97, 151 % of control [5 of 6 alive on day 11]; under setting [9], 1 [5 of 6 alive on day 11], 26, 33, 90 % of control; under setting [10], -63 [4 of 6 alive on day 11] and 4 % of control; under setting [11], -30 and 68 % of control. For the same compound, the survivor count is 2 of 6 on day 11 and 3 of 6 on day 11 under setting [10]; 0 of 6 on day 11 under setting [11].
As to `ClC1CSC1`, the T/C was 14 and 78 % of control under setting [9]; 20 % of control under setting [10]; 1 % of control under setting [11]. The survivor count is 0 of 6 on day 11 under setting [10]; 0 of 6 on day 11 under setting [11]; 0 of 6 on day 11 and 2 of 6 on day 11 (dose: 2400.0 mg/kg/injection, schedule: Q04DX003 (sc), vehicle: saline with Tween-80).
On to `CC1(C)CN1P(=O)(Nc1ncccn1)N1CC1(C)C` (stereo not drawn), for which the T/C by setting is: under setting [6], 35 and 40 % of control; under setting [7], 4 and 8 % of control; under setting [8], -100 [5 of 6 alive on day 11] and -21 % of control [4 of 6 alive on day 11]. The survivor count (dose: 1600.0 mg/kg/injection, schedule: Q04DX003 (sc), vehicle: suspension in saline) is 1 of 6 on day 11 and 2 of 6 on day 11.
For the compound `[Au].[C-]#N.[C-]#N`, the T/C (dose: 5.0 mg/kg/injection, schedule: Q04DX003 (sc), vehicle: saline) was 120 % of control; the T/C (dose: 10.0 mg/kg/injection, schedule: Q04DX003 (sc), vehicle: saline) was 82 % of control; the T/C (dose: 20.0 mg/kg/injection, schedule: Q04DX003 (sc), vehicle: saline) was 61 % of control. The survivor count (dose: 40.0 mg/kg/injection, schedule: Q04DX003 (sc), vehicle: saline) is 0 of 6 on day 11.
